Assay [1] concerns the target T1, GCLC (bait of the GCLC-pull down complex, Fig. S6C) (human) (UniProt P48506).
T1 sequence: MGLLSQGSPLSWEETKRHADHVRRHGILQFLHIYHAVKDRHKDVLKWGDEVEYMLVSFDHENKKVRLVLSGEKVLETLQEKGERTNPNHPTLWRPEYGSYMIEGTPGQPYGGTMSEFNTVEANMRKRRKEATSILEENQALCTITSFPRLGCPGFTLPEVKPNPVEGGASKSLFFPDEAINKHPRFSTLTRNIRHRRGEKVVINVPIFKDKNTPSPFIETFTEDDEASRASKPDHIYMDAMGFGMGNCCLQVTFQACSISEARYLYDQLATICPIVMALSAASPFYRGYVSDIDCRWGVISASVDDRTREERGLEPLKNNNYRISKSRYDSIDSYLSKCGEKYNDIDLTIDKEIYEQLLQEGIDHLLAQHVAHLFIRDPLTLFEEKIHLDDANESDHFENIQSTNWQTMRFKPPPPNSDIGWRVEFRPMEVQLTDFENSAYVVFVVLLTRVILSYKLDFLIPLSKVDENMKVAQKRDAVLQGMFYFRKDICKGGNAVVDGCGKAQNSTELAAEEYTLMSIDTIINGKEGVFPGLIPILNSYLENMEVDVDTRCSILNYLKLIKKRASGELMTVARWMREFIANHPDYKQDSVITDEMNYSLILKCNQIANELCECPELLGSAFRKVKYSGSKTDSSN
Put plainly: co-IP; GCLC-pull down complex, blot for P300 (Fig. S6C).

The chains behind the UniProt entries cited, without tags or fusion partners. Where a name states a change or a piece, a line headed by the entry shows the natural chain unless it says otherwise.
UniProt Q09472: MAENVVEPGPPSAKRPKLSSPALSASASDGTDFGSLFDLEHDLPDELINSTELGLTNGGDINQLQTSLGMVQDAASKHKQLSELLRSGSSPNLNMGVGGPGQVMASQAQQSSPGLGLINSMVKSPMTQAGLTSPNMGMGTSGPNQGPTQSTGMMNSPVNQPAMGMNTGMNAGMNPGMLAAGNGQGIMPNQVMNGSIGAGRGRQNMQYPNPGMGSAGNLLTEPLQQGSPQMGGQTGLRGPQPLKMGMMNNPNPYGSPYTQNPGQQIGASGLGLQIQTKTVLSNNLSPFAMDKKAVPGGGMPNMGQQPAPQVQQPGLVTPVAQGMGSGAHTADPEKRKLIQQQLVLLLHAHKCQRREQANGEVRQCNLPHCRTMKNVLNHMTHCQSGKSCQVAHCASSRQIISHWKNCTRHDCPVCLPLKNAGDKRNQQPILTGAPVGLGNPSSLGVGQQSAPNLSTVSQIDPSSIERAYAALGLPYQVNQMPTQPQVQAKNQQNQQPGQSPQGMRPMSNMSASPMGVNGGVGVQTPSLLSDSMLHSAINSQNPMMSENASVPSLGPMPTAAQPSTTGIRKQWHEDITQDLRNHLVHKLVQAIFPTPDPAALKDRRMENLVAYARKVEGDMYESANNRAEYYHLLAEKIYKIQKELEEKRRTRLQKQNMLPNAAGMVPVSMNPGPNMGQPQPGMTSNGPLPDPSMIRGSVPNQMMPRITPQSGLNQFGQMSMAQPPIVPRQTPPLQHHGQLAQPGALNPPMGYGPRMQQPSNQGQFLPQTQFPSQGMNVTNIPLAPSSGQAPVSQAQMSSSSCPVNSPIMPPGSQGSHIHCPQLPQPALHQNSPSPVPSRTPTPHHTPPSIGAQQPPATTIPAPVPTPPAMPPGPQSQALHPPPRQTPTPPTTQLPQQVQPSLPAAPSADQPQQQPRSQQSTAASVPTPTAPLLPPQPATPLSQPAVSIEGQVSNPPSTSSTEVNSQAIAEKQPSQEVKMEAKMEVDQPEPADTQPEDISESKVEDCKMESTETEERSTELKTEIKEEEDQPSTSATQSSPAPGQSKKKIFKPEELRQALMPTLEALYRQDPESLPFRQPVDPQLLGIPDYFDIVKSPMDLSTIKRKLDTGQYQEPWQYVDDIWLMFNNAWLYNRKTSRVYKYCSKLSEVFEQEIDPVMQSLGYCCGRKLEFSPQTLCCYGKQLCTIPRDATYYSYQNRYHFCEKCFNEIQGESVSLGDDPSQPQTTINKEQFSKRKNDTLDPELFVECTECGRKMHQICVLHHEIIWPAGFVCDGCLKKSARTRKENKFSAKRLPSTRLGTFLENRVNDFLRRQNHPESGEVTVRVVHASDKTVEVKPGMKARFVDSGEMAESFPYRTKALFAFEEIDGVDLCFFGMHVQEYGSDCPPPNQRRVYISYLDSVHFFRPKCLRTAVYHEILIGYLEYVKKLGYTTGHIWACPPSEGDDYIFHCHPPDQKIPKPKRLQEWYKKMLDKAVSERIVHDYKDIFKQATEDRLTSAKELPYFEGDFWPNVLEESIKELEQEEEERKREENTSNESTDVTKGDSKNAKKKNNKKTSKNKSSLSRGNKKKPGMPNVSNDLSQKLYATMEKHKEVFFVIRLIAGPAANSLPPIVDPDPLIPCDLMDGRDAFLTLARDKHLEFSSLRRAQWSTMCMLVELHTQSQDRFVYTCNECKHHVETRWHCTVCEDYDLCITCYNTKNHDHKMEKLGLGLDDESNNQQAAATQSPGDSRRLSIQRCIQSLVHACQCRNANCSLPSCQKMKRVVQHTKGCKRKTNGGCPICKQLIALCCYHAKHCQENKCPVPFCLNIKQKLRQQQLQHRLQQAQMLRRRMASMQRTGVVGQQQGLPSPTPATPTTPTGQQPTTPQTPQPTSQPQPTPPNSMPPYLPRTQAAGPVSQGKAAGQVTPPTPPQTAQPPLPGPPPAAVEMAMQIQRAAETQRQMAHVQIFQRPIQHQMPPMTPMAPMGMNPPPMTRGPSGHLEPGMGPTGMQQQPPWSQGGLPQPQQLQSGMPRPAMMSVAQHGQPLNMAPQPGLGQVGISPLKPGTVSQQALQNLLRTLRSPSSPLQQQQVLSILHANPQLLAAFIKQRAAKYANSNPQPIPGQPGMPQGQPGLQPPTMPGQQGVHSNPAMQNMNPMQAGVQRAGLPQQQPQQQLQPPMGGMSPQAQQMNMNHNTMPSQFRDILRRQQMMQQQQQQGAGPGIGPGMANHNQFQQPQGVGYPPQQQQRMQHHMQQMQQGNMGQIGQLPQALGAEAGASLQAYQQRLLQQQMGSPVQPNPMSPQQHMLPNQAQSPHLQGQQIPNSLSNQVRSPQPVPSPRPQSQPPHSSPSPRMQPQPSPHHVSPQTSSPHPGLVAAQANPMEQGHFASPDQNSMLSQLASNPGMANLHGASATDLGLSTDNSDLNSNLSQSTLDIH

The target of another assay is HA-P300 (UniProt Q09472). Put plainly: co-IP; HA-P300 pull-down complex, blot with anti-GCLC antibody; also HEK293T transfected with HA-P300 for 24 h and treated with 700 μM TBH for 12 h, which substantially decreased the association.
The target of a further assay is T2, Flag-SIRT2 (human) (UniProt Q8IXJ6).
T2 sequence: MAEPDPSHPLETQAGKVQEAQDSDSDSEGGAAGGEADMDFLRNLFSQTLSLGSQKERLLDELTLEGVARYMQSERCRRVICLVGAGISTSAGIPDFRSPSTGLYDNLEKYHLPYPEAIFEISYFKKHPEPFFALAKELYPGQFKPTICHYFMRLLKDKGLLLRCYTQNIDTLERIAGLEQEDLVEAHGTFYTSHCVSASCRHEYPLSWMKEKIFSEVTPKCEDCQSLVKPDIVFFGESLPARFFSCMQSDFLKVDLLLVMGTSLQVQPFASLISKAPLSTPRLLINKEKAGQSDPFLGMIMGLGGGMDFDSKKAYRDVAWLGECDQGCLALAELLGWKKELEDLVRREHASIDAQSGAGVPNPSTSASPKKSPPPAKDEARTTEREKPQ
Put plainly: co-IP; lysates of cells expressing the Flag-tagged bait, Flag-M2 beads overnight at 4 °C, IP buffer (50 mM Tris-HCl pH 7.5, 0.5% NP-40, 150 mM NaCl, 5 mM EDTA, 10% glycerin), blot for the endogenous partner; Flag-SIRT2 also after TBH (different concentrations 12 h; 700 μM for different times), which increased the co-precipitated GCLC.

In assay [2] the target is T3, endogenous GCLC (glutamate-cysteine ligase catalytic subunit) (human (endogenous in HEK293T)) (UniProt P48506).
T3 sequence: T1 sequence
Put plainly: co-IP; HEK293T whole cell lysates, anti-GCLC antibody or control IgG, blot for endogenous SIRT2; IP buffer (50 mM Tris-HCl pH 7.5, 0.5% NP-40, 150 mM NaCl, 5 mM EDTA, 10% glycerin).

Assay [3] has as its target T4, Flag-GCLC (Flag-tagged glutamate-cysteine ligase catalytic subunit) (human) (UniProt P48506).
T4 sequence: T1 sequence
Put plainly: co-IP; lysates of cells expressing the Flag-tagged bait, Flag-M2 beads overnight at 4 °C, IP buffer (50 mM Tris-HCl pH 7.5, 0.5% NP-40, 150 mM NaCl, 5 mM EDTA, 10% glycerin), blot for the endogenous partner; Flag-SIRT2 also after TBH (different concentrations 12 h; 700 μM for different times), which increased the co-precipitated GCLC.

The target in the next assay is T5, GST-GCLC (human) (UniProt P48506).
T5 sequence: T1 sequence
Put plainly: pull-down; GST-tagged proteins immobilised on GSH sepharose 4B at 4 °C overnight, incubated with His-SIRT2 at 4 °C for 4 h, washed three times with lysis buffer, western blot; both purified. (A western blot detects proteins with antibodies after separation by electrophoresis.)

Results are given in words; binding and its absence hold for the method and conditions named. For part of these data: In cells and extracts the contact can be indirect. Some results given as binding are weak or reduced against the parent protein; the word gives no strength. For part of these data: Where a sequence is shown, tags or fusion partners need not be part of it.

Consider “P300 (found in the GCLC-pull down complex, Fig. S6C) (from UniProt Q09472 1-2414) (enzyme)”, for which the binding entry in assay [1] was “binds”.

B1: endogenous GCLC (glutamate-cysteine ligase catalytic subunit) (enzyme, UniProt P48506 1-637)
chain: T1 sequence
Turning to B1, the binding entry with HA-P300 and in the assay with Flag-SIRT2 (human) was “binds” in each case.

B2: endogenous SIRT2 (NAD-dependent deacetylase Sirtuin-2) (enzyme, UniProt Q8IXJ6 1-389)
chain: T2 sequence
B2: the binding result in assay [2] and in assay [3] was “binds” each time.

B3: His-SIRT2 (enzyme, UniProt Q8IXJ6 1-389)
chain: T2 sequence
Take B3: the binding entry with GST-GCLC (human) is “binds”.

(Values after paper PMC12432198.)
